Laboratory results published in paper PMC9415646, “Improving Aqueous Solubility and In Vitro Pharmacokinetic Properties of the 3-Nitroimidazo[1,2-a]pyridine Antileishmanial Pharmacophore” (Pharmaceuticals, 2022).

Experiments:
[1] = system: T. b. brucei BSF trypomastigotes; assay: Antitrypanosomal evaluation on T. b. brucei BSF trypomastigotes (Alamar Blue); type: cell-based, Trypanosoma brucei brucei; conditions: SI = CC50 HepG2/EC50 T. brucei brucei
Protocol: The effects of the tested compounds on the growth of T. b. brucei were assessed by Alamar Blue® assay described by Räz et al. T. b. brucei AnTat 1.9 (IMTA, Antwerpen, Belgium) was cultured in MEM with Earle’s salts, supplemented according to the protocol of Baltz et al. with the following modifications: 0.5 mM mercaptoethanol (Sigma Aldrich®, France), 1.5 mM L-cysteine (Sigma Aldrich®), 0.05 mM bathocuproïne sulfate (Sigma Aldrich®) and 20% heat-inactivated horse serum (Gibco®, France), at 37 °C and 5% CO2. They were incubated at an average density of 2000 parasites/100 µL in sterile 96-wells plates (Fisher®, France) with various concentrations of compounds dissolved in DMSO, in duplicate. Appropriate controls suramin, treated with sterile water, and fexinidazole, treated with DMSO on sterile water (reference drugs purchased from Sigma Aldrich, France and Fluorochem, UK) were added to each set of experiments. After a 69 h incubation period at 37 °C, 10 µL of the viability marker Alamar Blue® (Fisher, France) were then added to each well, and the plates were incubated for 5 h. The plates were read in a ENSPIRE microplate reader (PerkinElmer, Waltham, MA, USA) using an excitation wavelength of 530 nm and an emission wavelength of 590 nm. […] EC50 were calculated by nonlinear regression analysis processed on dose-response curves, using GraphPad Prism software (USA). EC50 values were calculated from three separate experiments.

[2] = system: L. infantum intracellular amastigotes; assay: Antileishmanial activity on L. infantum intracellular (intra-THP1 macrophage) amastigotes; type: cell-based, Leishmania infantum; conditions: for SI THP1 L. infantum Intra. Ama.: SI = CC50 THP1/EC50 L. infantum intracellular amastigotes; for SI HepG2 L. infantum Intra. Ama.: SI = CC50 HepG2/EC50 L. infantum intracellular amastigotes
Protocol: The undifferentiated THP1 human monocyte cells (acute monocytic leukemia cell line purchased from ATCC, ref TIB-202) were grown in RPMI 1640 medium (Life Technologies, Saint-Aubin, France) supplemented with 10% FCS (Life Technologies, Saint-Aubin, France), 100 U/mL penicillin, 100 µg/mL streptomycin and 2 mM L-glutamine at 37 °C, 5% CO2. The culture was maintained between 3.10^5 and 1.10^6 cells/mL. The in vitro evaluation of the antileishmanial activity on intracellular amastigote forms of the tested compound was assessed as below.
Briefly, 200 μL of THP-1 cells with Phorbol 12-Myristate 13-Acetate (final concentration 50 ng/mL) were seeded in 96-well plates at an average density of 0.77 × 10^5 cells/mL and incubated for 96 h at 37 °C, 5% CO2. Promastigotes were centrifuged at 3000 rpm for 10 min and the supernatant replaced by the same volume of complete RPMI pH 5.4 and incubated for 24 h at 27 °C. Differentiated THP-1 cells were then infected by acidified promastigotes with an infection ratio of twenty parasites for one macrophage and incubated for 24 h at 37 °C, 5% CO2.
• Luciferase activity and determination of EC50 were performed as above.

Compound	SI T. b. brucei [1]	SI THP1 L. infantum Intra. Ama. [2]	SI HepG2 L. infantum Intra. Ama. [2]
O=[N+]([O-])c1c(CS(=O)(=O)c2ccc(O)cc2)nc2c(Br)cc(Cl)cn12 [Compound 2c, 4-{[(8-Bromo-6-Chloro-3-Nitroimidazo[1,2-a]pyridin-2-yl)methyl]sulfonyl}phenol]	>9.8	–	–
O=[N+]([O-])c1c(CS(=O)(=O)c2ccc(OC(F)(F)F)cc2)nc2c(Br)cc(Cl)cn12 [Compound 2f, 8-Bromo-6-Chloro-3-Nitro-2-[(4-Trifluoromethoxyphenylsulfonyl)methyl]imidazo[1,2-a] pyridine]	–	> 23.8	–
COc1ccc(S(=O)(=O)Cc2nc3c(Br)cc(Cl)cn3c2[N+](=O)[O-])cc1 [Compound 2g, 8-Bromo-6-Chloro-2-[(4-Methoxyphenylsulfonyl)methyl]-3-Nitroimidazo[1,2-a]pyridine]	–	> 45.5	–
O=[N+]([O-])c1c(CS(=O)(=O)c2ccc(O)cc2)nc2c(Sc3ccc(Cl)cc3)cc(Cl)cn12 [Compound 3a, 4-{[(6-Chloro-8-[(4-Chlorophenyl)thio]-3-Nitroimidazo[1,2-a]pyridin-2-yl)methyl]sulfonyl}phenol]	28.6	10.4	8.3
O=[N+]([O-])c1c(CS(=O)(=O)c2ccc(Cl)cc2)nc2c(Sc3ccc(Cl)cc3)cc(Cl)cn12 [Compound 3b, 6-Chloro-2-[(4-Chlorophenylsulfonyl)methyl]-8-[(4-Chlorophenyl)thio]-3-Nitroimidazo[1,2-a]pyridine]	–	> 22.3	–
O=[N+]([O-])c1c(CS(=O)(=O)c2ccc(F)cc2)nc2c(Sc3ccc(Cl)cc3)cc(Cl)cn12 [Compound 3c, 6-Chloro-8-[(4-Chlorophenyl)thio]-2-[(4-Fluorophenylsulfonyl)methyl]-3-Nitroimidazo[1,2-a]pyridine]	>27.4	> 62.5	–
O=[N+]([O-])c1c(CS(=O)(=O)c2ccc(C(F)(F)F)cc2)nc2c(Sc3ccc(Cl)cc3)cc(Cl)cn12 [Compound 3d, 6-Chloro-8-[(4-Chlorophenyl)thio]-3-Nitro-2-[(4-Trifluoromethylphenylsulfonyl)methyl]imidazo[1,2-a]pyridine]	>4.4	> 11.4	> 0.9
O=[N+]([O-])c1c(CS(=O)(=O)c2ccc(OC(F)(F)F)cc2)nc2c(Sc3ccc(Cl)cc3)cc(Cl)cn12 [Compound 3e, 6-Chloro-8-[(4-Chlorophenyl)thio]-3-Nitro-2-[(4-Trifluoromethoxyphenylsulfonyl)methyl]imidazo[1,2-a]pyridine]	–	> 62.5	–
COc1ccc(S(=O)(=O)Cc2nc3c(Sc4ccc(Cl)cc4)cc(Cl)cn3c2[N+](=O)[O-])cc1 [Compound 3f, 6-Chloro-8-[(4-Chlorophenyl)thio]-2-[(4-Methoxyphenylsulfonyl)methyl]-3-Nitroimidazo[1,2-a]pyridine]	–	> 55.6	–
O=[N+]([O-])c1c(CS(=O)(=O)C2CC2)nc2c(Sc3ccc(Cl)cc3)cc(Cl)cn12 [Compound 3h, 6-Chloro-8-[(4-Chlorophenyl)thio]-2-[(cyclopropylsulfonyl)methyl]-3-Nitroimidazo[1,2-a]pyridine]	–	> 16.9	–
O=[N+]([O-])c1c(CS(=O)(=O)CCC(F)(F)F)nc2c(Sc3ccc(Cl)cc3)cc(Cl)cn12 [Compound 3i, 6-Chloro-8-[(4-Chlorophenyl)thio]-3-Nitro-2-[(3,3,3-Trifluoropropylsulfonyl)methyl]imidazo[1,2-a]pyridine]	–	> 41.7	–
O=[N+]([O-])c1c(CS(=O)(=O)CCC(F)(F)F)nc2c([S+]([O-])c3ccc(Cl)cc3)cc(Cl)cn12 (stereo not drawn) [Compound 6a, 6-Chloro-8-[(4-Chlorophenyl)sulfinyl]-3-Nitro-2-[(3,3,3-Trifluoropropylsulfonyl)methyl] imidazo[1,2-a]pyridine]	–	> 30.3	> 1.5
O=[N+]([O-])c1c(CS(=O)(=O)CCC(F)(F)F)nc2c(S(=O)(=O)c3ccc(Cl)cc3)cc(Cl)cn12 [Compound 6b, 6-Chloro-8-[(4-Chlorophenyl)sulfonyl]-3-Nitro-2-[(3,3,3-Trifluoropropylsulfonyl)methyl] imidazo[1,2-a]pyridine]	–	> 12.0	> 1.2
Cn1c([N+](=O)[O-])cnc1COc1ccc(S(C)(=O)=O)cc1 [Fexinidazole sulfone, reference compound]	–	-/>5.6	–
CSc1ccc(OCc2ncc([N+](=O)[O-])n2C)cc1 [Fexinidazole, reference compound]	>142.9	>6.3/>6.3	>6.3/>6.3
O=[N+]([O-])c1c(CS(=O)(=O)c2ccccc2)nc2c(Br)cc(Cl)cn12 [Hit A, 8-Bromo-6-chloro-3-nitro-2-(phenylsulfonylmethyl)imidazo[1,2-a]pyridine, reference compound]	>11.1	> 47.6	> 7.4
O=[N+]([O-])c1c(CS(=O)(=O)c2ccccc2)nc2c(Sc3ccc(Cl)cc3)cc(Cl)cn12 [Hit B, reference compound]	>105.3	> 19.5	> 31.3
